{
  "source": "patent US20090281083A1",
  "about": "“Combination Product” (ASTRAZENECA AB, priority 2005, published 2009)",
  "system": "5/6 nephrectomy rats",
  "experiment": "Survival of 5/6 nephrectomised rats at 4 months",
  "type": "in vivo, male Wistar rats",
  "details": "4 months into the study (3 months of drug treatment); candesartan cilexetil 5 mg/kg/day p.o., BH4 10 mg/kg/day i.p.",
  "protocol": "Sixty male Wistar rats, mean weight 324±4 g, were fed a normal chow diet and allowed distilled water ad libitum. The 5/6 nephrectomy was performed according to standard protocol. In brief, the animals were anaesthetized with pentobarbital [35 mg/kg body weight (BW) intraperitoneally] and then underwent a right nephrectomy and ligature of two of the major branches of the left main renal artery (Nx) at day 0. AII the nephrectomies were carried out by one operator. The animals were then randomly assigned to one of five groups, as follows. • Group 1. SHAM (n=12); sham-operated rats. • Group 2. Nx (n=15); untreated 5/6 nephrectomy rats. • Group 3. C (n=11); 5/6 nephrectomy rats to which candesartan cilexetil (AstraZeneca AB) was given daily at a dose of 5 mg/kg BW/day. • Group 4. BH4 (n=10); 5/6 nephrectomy rats administered BH4 (Alexis Biochemical, Lausen), 10 mg/kg BW/day intraperitoneally (see Hypertension 38, 1044-1048 (2001), the disclosures of which document are hereby incorporated by reference). • Group 5. […]\nDrug administration was begun 30 days after surgery (at a point when the nephrectomised rats have already developed hypertension and renal insufficiency). […] Systolic blood pressure (SBP) was measured in trained unstressed rats 1 day before surgery and at 30, 60, 90 and 120 days, by tail cuff manometry using an automated sphygmomanometer (Narco Bio Systems, Austin, Tex., USA). […]",
  "note": "For at least one compound, name, drawing or mass did not settle the structure.",
  "data": [
    {"smiles": "C[C@H](O)[C@H](O)[C@H]1CNc2nc(N)[nH]c(=O)c2N1", "note": "[BH4, Tetrahydrobiopterin]", "values": [
      {"measurement": "Survival (surviving rats of group)", "value": "5 of 10"}
    ]}
  ]
}
